The record followed here is the supplement of paper PMC6331611.

± gives the standard deviation of the averaged measurements. The full ranking holds about 1,600 compounds; the median of “normalized intracellular growth (luminescence, IQM-normalized) in RAW264.7 macrophages” is about 1, and the lowest 2% start at about 0.43. The list shows a part of the results.

In this assay the test system is Salmonella enterica serovar Typhimurium SL1344. The experiment in a line: normalized intracellular growth (luminescence, IQM-normalized) in RAW264.7 macrophages (fraction of plate interquartile mean); higher = more bacterial growth (less inhibition). The conditions noted are these: 10 µM.

Consider `COc1ccc(C[C@H](N)C(=O)N[C@H]2[C@@H](O)[C@H](n3cnc4c(N(C)C)ncnc43)O[C@@H]2CO)cc1`, for which the normalized intracellular growth is, setting by setting: (time point: T3 (3 h)) 0.993 ± 0.058; (time point: Tfinal (~6 h)) 1.05 ± 0.16.
`[O-][n+]1cccc(CO)c1` had a normalized intracellular growth (time point: T3 (3 h)) of 0.993 ± 0.047 and a normalized intracellular growth (time point: Tfinal (~6 h)) of 0.982 ± 0.16.
Consider `Cc1ccnc(NS(=O)(=O)c2ccc(N)cc2)n1`, for which the normalized intracellular growth by setting is: (time point: T3 (3 h)) 1.03 ± 0.076; (time point: Tfinal (~6 h)) 0.986 ± 0.026.
Turning to `NCCCC(O)(P(=O)(O)O)P(=O)(O)O`, the normalized intracellular growth amounted to 0.994 ± 0.083 (time point: T3 (3 h)) and 1.12 ± 0.14 (time point: Tfinal (~6 h)).
`Nc1ccc(S(=O)(=O)Nc2cnc3ccccc3n2)cc1`: the normalized intracellular growth stood at 1.05 ± 0.077 (time point: T3 (3 h)) and 1.05 ± 0.098 (time point: Tfinal (~6 h)).
`CNC[C@H](O)[C@@H](O)[C@H](O)[C@H](O)CO`: the normalized intracellular growth by setting is: (time point: T3 (3 h)) 1.04 ± 0.048; (time point: Tfinal (~6 h)) 0.808 ± 0.19.
Take `CC(C)CCCC(C)N` (centres undefined): the normalized intracellular growth turned out to be 1.07 ± 0.043 (time point: T3 (3 h)) and 1.24 ± 0.043 (time point: Tfinal (~6 h)).
The matching figures for `CC(=O)N[C@@H](CS)C(=O)O`: 0.924 ± 0.053 and 1.01 ± 0.013.
For `CC(=O)O[C@H]1C[C@@]2(C)[C@@H](C[C@@H](O)[C@H]3[C@@]4(C)CC[C@@H](O)[C@@H](C)[C@@H]4CC[C@@]32C)/C1=C(\CCC=C(C)C)C(=O)O`, in that order: 0.828 ± 0.069 and 0.958 ± 0.12.
Consider `CCN(CC)CCOC(=O)c1ccc(N)cc1`, for which the normalized intracellular growth is 1.04 ± 0.039 (time point: T3 (3 h)) and 1.02 ± 0.061 (time point: Tfinal (~6 h)).
Regarding `CC[C@H](C)C(=O)O[C@H]1C[C@@H](C)C=C2C=C[C@H](C)[C@H](CC[C@@H]3C[C@@H](O)CC(=O)O3)[C@H]21`, the normalized intracellular growth reads like this: (time point: T3 (3 h)) 1.07 ± 0.049; (time point: Tfinal (~6 h)) 1.1 ± 0.11.
For `CCCCC(CC)COC(=O)C(C#N)=C(c1ccccc1)c1ccccc1` (centres undefined), in that order: 0.995 ± 0.051 and 1.11 ± 0.093.
As for `Nc1c2c(nc3ccccc13)CCCC2`, the normalized intracellular growth reads like this: (time point: T3 (3 h)) 1.02 ± 0.043; (time point: Tfinal (~6 h)) 0.979 ± 0.033.
In the case of `C=C[C@@]1(C)CC(=O)[C@]2(O)[C@@]3(C)[C@@H](O)CCC(C)(C)[C@@H]3[C@H](O)[C@H](OC(C)=O)[C@@]2(C)O1`, the normalized intracellular growth runs as follows: (time point: T3 (3 h)) 1.26 ± 0.025; (time point: Tfinal (~6 h)) 1.33 ± 0.33.
Consider `CN(Cc1cnc2nc(N)nc(N)c2n1)c1ccc(C(=O)NC(CCC(=O)O)C(=O)O)cc1` (racemic), for which the normalized intracellular growth stood at 1.05 ± 0.046 (time point: T3 (3 h)) and 0.825 ± 0.024 (time point: Tfinal (~6 h)).
Regarding `C/C(=C(\CCOP(=O)(O)O)SC(=O)c1ccccc1)N(C=O)Cc1cnc(C)nc1N`, the normalized intracellular growth runs as follows: (time point: T3 (3 h)) 1.08 ± 0.063; (time point: Tfinal (~6 h)) 1.11 ± 0.22.
In the case of `CC1(C)O[C@@H]2C[C@H]3[C@@H]4CCC5=CC(=O)C=C[C@]5(C)[C@H]4[C@@H](O)C[C@]3(C)[C@]2(C(=O)CO)O1`, the normalized intracellular growth is, setting by setting: (time point: T3 (3 h)) 1.08 ± 0.01; (time point: Tfinal (~6 h)) 1.19 ± 0.26.
As to `CCN(CC)CCOc1ccc2c(c1)C(=O)c1cc(OCCN(CC)CC)ccc1-2`, the normalized intracellular growth amounted to 1 ± 0.035 (time point: T3 (3 h)) and 1 ± 0.021 (time point: Tfinal (~6 h)).
For the molecule `O=C(CCCCCCC(=O)Nc1ccccc1)NO`, the normalized intracellular growth is, setting by setting: (time point: T3 (3 h)) 0.879 ± 0.019; (time point: Tfinal (~6 h)) 0.893 ± 0.077.
On to `CC[C@H]1OC(=O)C[C@@H](O)[C@H](C)[C@@H](O[C@@H]2O[C@H](C)[C@@H](O[C@H]3C[C@@](C)(O)[C@@H](O)[C@H](C)O3)[C@H](N(C)C)[C@H]2O)[C@@H](CC=O)C[C@@H](C)C(=O)/C=C/C(C)=C/[C@@H]1CO[C@@H]1O[C@H](C)[C@@H](O)[C@@H](OC)[C@H]1OC`, for which the normalized intracellular growth (time point: T3 (3 h)) is 0.948 ± 0.091 and the normalized intracellular growth (time point: Tfinal (~6 h)) is 0.932 ± 0.084.
On to `CC1(C)S[C@@H]2[C@H](NC(=O)[C@H](C(=O)O)c3ccsc3)C(=O)N2[C@H]1C(=O)O`, for which the normalized intracellular growth was determined as 0.983 ± 0.073 (time point: T3 (3 h)) and 1.02 ± 0.17 (time point: Tfinal (~6 h)).
The matching figures for `CN[C@@H]1[C@@H](O)[C@@H](O[C@@H]2[C@@H](O)[C@H](O[C@H]3OC(CN)=CC[C@H]3N)[C@@H](N)C[C@H]2N)OC[C@]1(C)O`: 1 ± 0.052 and 1.04 ± 0.056.
Consider `Cc1cc(NS(=O)(=O)c2ccc(N)cc2)no1`, for which the normalized intracellular growth turned out to be 0.972 ± 0.056 (time point: T3 (3 h)) and 1.02 ± 0.069 (time point: Tfinal (~6 h)).
In the case of `CC(C)OC(=O)CCC/C=C\C[C@@H]1[C@@H](/C=C/[C@@H](O)COc2cccc(C(F)(F)F)c2)[C@H](O)C[C@@H]1O`, the normalized intracellular growth runs as follows: (time point: T3 (3 h)) 0.975 ± 0.033; (time point: Tfinal (~6 h)) 1.19 ± 0.12.
With `O=C1CN(/N=C/c2ccc(-c3ccc([N+](=O)[O-])cc3)o2)C(=O)N1`, the normalized intracellular growth came to 1.02 ± 0.021 (time point: T3 (3 h)) and 0.9 ± 0.049 (time point: Tfinal (~6 h)).
`CCC(=O)Oc1ccc2c(c1)CC[C@@H]1[C@@H]2CC[C@]2(C)[C@@H](OC(=O)CC)CC[C@@H]12` showed a normalized intracellular growth (time point: T3 (3 h)) of 0.977 ± 0.092 and a normalized intracellular growth (time point: Tfinal (~6 h)) of 0.934 ± 0.089.
As for `CC1(O)CCC(C(C)(C)O)CC1` (centres undefined), the normalized intracellular growth runs as follows: (time point: T3 (3 h)) 0.995 ± 0.025; (time point: Tfinal (~6 h)) 1.07 ± 0.056.
As for `CCOC(=O)n1ccn(C)c1=S`, the normalized intracellular growth runs as follows: (time point: T3 (3 h)) 0.999 ± 0.032; (time point: Tfinal (~6 h)) 1.15 ± 0.055.
Turning to `C[C@H](N)[C@H](O)c1cccc(O)c1`, the normalized intracellular growth by setting is: (time point: T3 (3 h)) 1.14 ± 0.082; (time point: Tfinal (~6 h)) 0.922 ± 0.24.
For `CC1(C)S[C@@H]2[C@H](NC(=O)C(C(=O)O)c3ccccc3)C(=O)N2[C@H]1C(=O)O` (some centres undefined), in that order: 1.01 ± 0.021 and 0.957 ± 0.059.
For the molecule `CCN(CC)CCOC(=O)C(Cc1cccc2ccccc12)CC1CCCO1` (centres undefined), the normalized intracellular growth is 1.07 ± 0.019 (time point: T3 (3 h)) and 1.05 ± 0.15 (time point: Tfinal (~6 h)).
`CC(C)(C)C(=O)C(Oc1ccc(Cl)cc1)n1ccnc1` (centres undefined): the normalized intracellular growth is 1.042 ± 0.0043 (time point: T3 (3 h)) and 1.12 ± 0.016 (time point: Tfinal (~6 h)).
On to `O=C1CN(/N=C/c2ccc([N+](=O)[O-])o2)C(=O)N1`, for which the normalized intracellular growth runs as follows: (time point: T3 (3 h)) 0.959 ± 0.028; (time point: Tfinal (~6 h)) 1.17 ± 0.061.
`Cc1ccccc1OCC(O)CO` (centres undefined): the normalized intracellular growth (time point: T3 (3 h)) stood at 1.01 ± 0.013 and the normalized intracellular growth (time point: Tfinal (~6 h)) is 1.03 ± 0.053.
Take `CC(C(=O)O)c1cccc(C(=O)c2ccccc2)c1` (centres undefined): the normalized intracellular growth was found to be 0.97 ± 0.022 (time point: T3 (3 h)) and 1.01 ± 0.091 (time point: Tfinal (~6 h)).
With `Nc1nc(N)c2nc(CNc3ccc(C(=O)N[C@@H](CCC(=O)O)C(=O)O)cc3)cnc2n1`, the normalized intracellular growth reads like this: (time point: T3 (3 h)) 0.994 ± 0.021; (time point: Tfinal (~6 h)) 1.09 ± 0.15.
For `CCOC(=O)c1ncn2c1CN(C)C(=O)c1cc(F)ccc1-2`, in that order: 0.992 ± 0.02 and 1.05 ± 0.15.
